Measured values reported in PMC11289102.
No constants are given. Whether binding was seen depends on the method and setting. In cells and extracts the contact can be indirect. Some binding calls cover weakened binding; strength is not graded here. Where a sequence is shown, tags or fusion partners need not be part of it.

The chains behind the UniProt entries cited, without tags or fusion partners.
UniProt P11440: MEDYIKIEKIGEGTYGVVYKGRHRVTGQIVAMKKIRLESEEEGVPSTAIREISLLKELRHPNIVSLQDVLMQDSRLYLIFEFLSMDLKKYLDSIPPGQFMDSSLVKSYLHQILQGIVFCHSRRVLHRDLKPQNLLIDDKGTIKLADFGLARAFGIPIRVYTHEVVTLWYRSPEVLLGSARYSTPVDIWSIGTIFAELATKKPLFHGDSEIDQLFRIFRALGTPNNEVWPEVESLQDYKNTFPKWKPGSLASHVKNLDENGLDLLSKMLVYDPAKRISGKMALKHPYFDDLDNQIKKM

T1: Flag-Hmmr (hyaluronan mediated motility receptor) (UniProt Q00547)
T1 sequence: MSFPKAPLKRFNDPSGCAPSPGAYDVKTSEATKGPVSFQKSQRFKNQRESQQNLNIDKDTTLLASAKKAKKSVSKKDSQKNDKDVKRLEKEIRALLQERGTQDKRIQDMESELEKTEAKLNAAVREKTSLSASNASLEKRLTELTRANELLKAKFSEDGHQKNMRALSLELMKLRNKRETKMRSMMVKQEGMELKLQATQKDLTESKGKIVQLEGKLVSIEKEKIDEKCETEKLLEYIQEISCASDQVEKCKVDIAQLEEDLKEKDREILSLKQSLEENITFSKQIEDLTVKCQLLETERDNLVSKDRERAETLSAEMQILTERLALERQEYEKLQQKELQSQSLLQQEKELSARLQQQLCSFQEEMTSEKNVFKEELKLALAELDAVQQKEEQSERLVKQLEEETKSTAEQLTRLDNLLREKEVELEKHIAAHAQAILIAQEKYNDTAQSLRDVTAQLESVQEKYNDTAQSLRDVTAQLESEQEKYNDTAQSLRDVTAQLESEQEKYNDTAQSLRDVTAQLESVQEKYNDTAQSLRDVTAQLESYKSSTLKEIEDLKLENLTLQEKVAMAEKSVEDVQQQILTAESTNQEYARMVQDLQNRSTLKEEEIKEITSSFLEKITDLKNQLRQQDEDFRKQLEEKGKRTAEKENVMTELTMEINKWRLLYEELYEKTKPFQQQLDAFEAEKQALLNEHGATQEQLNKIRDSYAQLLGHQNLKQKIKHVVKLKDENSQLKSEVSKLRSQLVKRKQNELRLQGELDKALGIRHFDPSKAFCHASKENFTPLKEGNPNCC

T2: HA-Mmrn1 (multimerin 1) (UniProt B2RPV6)
T2 sequence: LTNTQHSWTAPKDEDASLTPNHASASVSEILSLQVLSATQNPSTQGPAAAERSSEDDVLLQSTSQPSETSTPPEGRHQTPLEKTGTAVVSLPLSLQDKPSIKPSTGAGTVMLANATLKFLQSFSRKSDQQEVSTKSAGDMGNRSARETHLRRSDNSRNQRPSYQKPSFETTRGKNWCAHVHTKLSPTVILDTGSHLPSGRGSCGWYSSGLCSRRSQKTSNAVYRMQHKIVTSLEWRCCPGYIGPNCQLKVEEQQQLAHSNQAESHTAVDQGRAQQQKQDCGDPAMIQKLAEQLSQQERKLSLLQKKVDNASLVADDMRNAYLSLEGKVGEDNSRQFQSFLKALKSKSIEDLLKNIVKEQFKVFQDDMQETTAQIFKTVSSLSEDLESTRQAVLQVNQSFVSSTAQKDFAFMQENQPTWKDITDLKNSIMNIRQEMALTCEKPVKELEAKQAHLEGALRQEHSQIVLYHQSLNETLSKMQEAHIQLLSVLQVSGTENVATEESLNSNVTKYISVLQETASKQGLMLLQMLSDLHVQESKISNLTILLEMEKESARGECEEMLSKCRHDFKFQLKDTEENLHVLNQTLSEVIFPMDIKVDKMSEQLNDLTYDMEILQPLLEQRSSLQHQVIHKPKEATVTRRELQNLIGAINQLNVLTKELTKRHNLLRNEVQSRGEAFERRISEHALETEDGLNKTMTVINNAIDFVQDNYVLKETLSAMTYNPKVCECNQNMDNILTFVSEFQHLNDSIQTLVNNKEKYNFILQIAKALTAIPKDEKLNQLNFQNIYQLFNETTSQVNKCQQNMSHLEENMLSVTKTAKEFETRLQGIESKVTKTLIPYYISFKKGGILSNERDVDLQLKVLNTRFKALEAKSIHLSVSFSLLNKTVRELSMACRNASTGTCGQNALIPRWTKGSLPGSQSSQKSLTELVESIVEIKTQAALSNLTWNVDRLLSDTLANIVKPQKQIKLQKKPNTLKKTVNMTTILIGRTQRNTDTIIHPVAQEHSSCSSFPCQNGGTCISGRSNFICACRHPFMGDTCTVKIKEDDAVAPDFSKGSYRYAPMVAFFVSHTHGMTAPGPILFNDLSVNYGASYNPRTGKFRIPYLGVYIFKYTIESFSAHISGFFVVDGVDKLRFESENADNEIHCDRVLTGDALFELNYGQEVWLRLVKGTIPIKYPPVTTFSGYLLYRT


Tests used:
[1] = target: T1, Flag-Hmmr (hyaluronan mediated motility receptor); test: co-IP; HEK293T transfected with HA-Mmrn1, Flag-Hmmr or Myc-Cdk1 plasmid; cell membrane lysate; immunoprecipitated with antibodies against HA, Flag and Myc, protein G Sepharose; blotted with antibodies against HA, Flag and Myc
HA-Mmrn1 (multimerin 1) = target: T2, HA-Mmrn1 (multimerin 1); test: as above

| binding [1] | binding (HA-Mmrn1 (multimerin 1)) | Molecule |
| --- | --- | --- |
| binds | binds | Myc-Cdk1 (cyclin-dependent kinase 1) (from UniProt P11440 1-297) |
| – | binds | Flag-Hmmr (hyaluronan mediated motility receptor) (protein, UniProt Q00547 1-794) MSFPKAPLKRFNDPSGCAPSPGAYDVKTSEATKGPVSFQKSQRFKNQRESQQNLNIDKDTTLLASAKKAKKSVSKKDSQKNDKDVKRLEKEIRALLQERGTQDKRIQDMESELEKTEAKLNAAVREKTSLSASNASLEKRLTELTRANELLKAKFSEDGHQKNMRALSLELMKLRNKRETKMRSMMVKQEGMELKLQATQKDLTESKGKIVQLEGKLVSIEKEKIDEKCETEKLLEYIQEISCASDQVEKCKVDIAQLEEDLKEKDREILSLKQSLEENITFSKQIEDLTVKCQLLETERDNLVSKDRERAETLSAEMQILTERLALERQEYEKLQQKELQSQSLLQQEKELSARLQQQLCSFQEEMTSEKNVFKEELKLALAELDAVQQKEEQSERLVKQLEEETKSTAEQLTRLDNLLREKEVELEKHIAAHAQAILIAQEKYNDTAQSLRDVTAQLESVQEKYNDTAQSLRDVTAQLESEQEKYNDTAQSLRDVTAQLESEQEKYNDTAQSLRDVTAQLESVQEKYNDTAQSLRDVTAQLESYKSSTLKEIEDLKLENLTLQEKVAMAEKSVEDVQQQILTAESTNQEYARMVQDLQNRSTLKEEEIKEITSSFLEKITDLKNQLRQQDEDFRKQLEEKGKRTAEKENVMTELTMEINKWRLLYEELYEKTKPFQQQLDAFEAEKQALLNEHGATQEQLNKIRDSYAQLLGHQNLKQKIKHVVKLKDENSQLKSEVSKLRSQLVKRKQNELRLQGELDKALGIRHFDPSKAFCHASKENFTPLKEGNPNCC |
